In paper PMC8492241:
Results are given in words; binding and its absence hold for the method and conditions named. Binding seen in cells or lysates may run through a third protein. Here binding means that the protein was enriched with, or labelled near, the bait; the list need not be complete.

The chains behind the UniProt entries cited, without tags or fusion partners. Residues count along the entry.
UniProt O00116, residues 59-658: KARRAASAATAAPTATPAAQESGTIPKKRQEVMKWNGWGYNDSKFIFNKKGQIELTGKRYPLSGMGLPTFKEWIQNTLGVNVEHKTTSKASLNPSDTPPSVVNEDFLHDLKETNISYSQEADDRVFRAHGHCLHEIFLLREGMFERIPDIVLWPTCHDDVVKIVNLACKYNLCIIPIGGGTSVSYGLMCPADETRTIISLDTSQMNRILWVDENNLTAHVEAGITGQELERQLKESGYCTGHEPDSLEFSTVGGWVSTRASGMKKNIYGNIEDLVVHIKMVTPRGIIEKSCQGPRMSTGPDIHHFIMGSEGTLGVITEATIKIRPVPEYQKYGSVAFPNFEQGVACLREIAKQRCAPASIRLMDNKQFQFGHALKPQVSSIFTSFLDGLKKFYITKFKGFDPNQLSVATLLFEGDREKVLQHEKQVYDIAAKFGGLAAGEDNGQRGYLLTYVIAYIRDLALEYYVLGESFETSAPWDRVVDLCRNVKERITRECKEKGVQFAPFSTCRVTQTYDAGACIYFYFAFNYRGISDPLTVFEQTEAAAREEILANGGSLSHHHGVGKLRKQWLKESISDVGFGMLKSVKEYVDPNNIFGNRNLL

Biological target: Alkylglycerone phosphate synthase (human (endogenous in U251)) (UniProt O00116)
Assay: affinity purification with mass spectrometry; anti-AGPS immunoprecipitate of U251 lysate, 8% SDS-PAGE, silver stain, gel cut near 180 KD, in-gel trypsin digest, LC-MS/MS (Q-Exactive), Proteome Discoverer 1.4

Question: With “Heterogeneous nuclear ribonucleoprotein K (from UniProt P61978 1-463)” as the substance, how does the binding read?
Answer: binds
